Measured values from PubChem BioAssay AID1259354 (Paczesny and Yang Labs, IUPUI and University of Michigan, 2018).
Several values for one entry are separate records, joined by “and”; a condition that tells them apart may be missing. Equal values may be shown once. About 1,800 (2.3%) of roughly 78,000 compounds were called active. This list was built around the results that the source calls inconclusive (neither active nor inactive); the mix of calls is not that of the screen. Cut-off read from the data, not from the text of the source: active = inhibition above about 30%; inconclusive = mostly about 10% to 28%; inactive = weaker than that.

Sequences of proteins named here, by UniProt entry; tags and fusion partners are left off. A change or cut given only in a name is not applied to a line headed by its entry.
UniProt Q01638: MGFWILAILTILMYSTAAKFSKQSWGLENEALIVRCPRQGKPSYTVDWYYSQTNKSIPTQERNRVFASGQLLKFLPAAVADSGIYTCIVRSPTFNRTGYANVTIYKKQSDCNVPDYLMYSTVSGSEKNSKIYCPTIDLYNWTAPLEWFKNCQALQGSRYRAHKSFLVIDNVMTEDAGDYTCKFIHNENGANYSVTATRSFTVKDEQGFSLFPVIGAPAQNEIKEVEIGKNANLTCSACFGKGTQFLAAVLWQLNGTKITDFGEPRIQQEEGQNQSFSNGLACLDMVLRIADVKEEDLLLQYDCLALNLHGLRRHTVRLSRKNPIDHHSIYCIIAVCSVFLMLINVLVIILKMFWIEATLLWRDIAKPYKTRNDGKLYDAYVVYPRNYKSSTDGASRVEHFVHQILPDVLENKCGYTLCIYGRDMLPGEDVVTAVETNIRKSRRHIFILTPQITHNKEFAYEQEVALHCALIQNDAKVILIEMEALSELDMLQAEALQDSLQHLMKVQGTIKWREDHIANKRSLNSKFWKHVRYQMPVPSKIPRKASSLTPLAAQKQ

target: Interleukin-1 receptor-like 1 (Homo sapiens) (UniProt Q01638); assay: blocks human ST2 binding to IL-33, primary screen, biochemical, AlphaLISA (AID 1259354); details: AlphaLISA ST2-Fc/biotin-IL-33 interaction, 1 h; at 17 µM, hits give high values

SMILES	inhibition
Cc1nnc(SCC(=O)NCc2cc(-c3ccco3)on2)s1	inactive
Cc1cccc(N2C(=O)CC(Sc3ccccn3)C2=O)c1 (configuration not stated)	inconclusive: 26%
CCO[C@H]1COC[C@@H]1NC(=O)CCc1c(C)nn(C)c1C	inconclusive: 20%
Cc1cc(Nc2ccccc2)nc(N2CCN(S(=O)(=O)c3ccccc3F)CC2)n1	inconclusive: 28%
CSc1nc2ccc(N=Cc3cccc([N+](=O)[O-])c3)cc2s1	inconclusive: 23%
CC(C)(C)c1nnc([C@H]2CCN(Cc3ccc(C(=O)O)cc3)C2)o1	inconclusive: 12%
COc1ccccc1OCc1cc(C(=O)N(C)C(C)c2cccs2)no1 (configuration not stated)	inconclusive: 10%
CCOc1ccc(NC(=O)NCCc2nc3cccnc3n2C2CCCCC2)cc1	inconclusive: 10%
CCc1nc(N2CCC(C)CC2)c(C#N)c2c1CCCC2	inactive
O=C(c1ccc(Br)cc1)N1CCN(c2ccc([N+](=O)[O-])cc2)CC1	inconclusive: 12%
Cc1ccccc1-c1cc(N2CCN(S(=O)(=O)c3ccc(Br)cc3)CC2)ncn1	inconclusive: 13%
O=C(O)c1ccccc1CN1CCCCC1CCn1cccn1 (configuration not stated)	inconclusive: 11%
Cc1ccccc1-n1c(=O)c2c3c(sc2n2cnnc12)CCCC3	inconclusive: 11%
CCOc1ccc(C(=O)Nc2ccccc2CC)cc1Cl	inactive
Cc1ccc(N2CC(NC(=O)Cc3ccc(Cl)cc3)CC2=O)cc1C (configuration not stated)	inactive
COc1ccc([C@@H](C)n2ccnc2-c2cnc(N3CCCC3)nc2)cc1	inconclusive: 14%
CCOc1ccc(N=Cc2cc(Br)cc(I)c2O)cc1	inconclusive: 23%
C=CCSc1nnc2c(n1)OC(c1ccc(Br)o1)N(C(C)=O)c1ccccc1-2 (configuration not stated)	inactive
CCCNC(=O)C(=O)Nc1cccc(Cl)c1	inactive
CC(C)=CC(=O)N1CCCN(CC(C)C)CC1	inconclusive: 20%
CN1CCN([C@@H]2c3ccccc3C3(CCN(Cc4ncc[nH]4)CC3)[C@H]2O)CC1	inactive
CSc1ccc(C2SCC(=O)N2c2ccc(Br)cc2)cc1 (configuration not stated)	inconclusive: 11%
CCOc1cccc2cc(C(N)=O)c(=Nc3ccccc3OC)oc12	inconclusive: 24%
CC(C)(C)NC(=O)c1ccc(Cl)c(Cl)c1	inactive
COc1ccc(Cl)cc1NC(=O)CSc1c2c(nc3ccccc13)CCC2	inconclusive: 17%
Cc1ccc(-c2cc(-c3ccccc3)nc(SCC(=O)Nc3ncccn3)c2C#N)cc1	inconclusive: 23% and inconclusive: 10%
COc1ccc(-n2c(C)nc3c(cnn3-c3ccc(C)c(C)c3)c2=O)cc1	inconclusive: 10%

Seven compounds from above, arranged by length of the SMILES, rising:
SMILES	inhibition
CC(C)(C)NC(=O)c1ccc(Cl)c(Cl)c1	inactive
Cc1nnc(SCC(=O)NCc2cc(-c3ccco3)on2)s1	inactive
CSc1nc2ccc(N=Cc3cccc([N+](=O)[O-])c3)cc2s1	inconclusive: 23%
COc1ccc(Cl)cc1NC(=O)CSc1c2c(nc3ccccc13)CCC2	inconclusive: 17%
COc1ccc([C@@H](C)n2ccnc2-c2cnc(N3CCCC3)nc2)cc1	inconclusive: 14%
O=C(c1ccc(Br)cc1)N1CCN(c2ccc([N+](=O)[O-])cc2)CC1	inconclusive: 12%
Cc1cc(Nc2ccccc2)nc(N2CCN(S(=O)(=O)c3ccccc3F)CC2)n1	inconclusive: 28%
